Taken from: PubChem BioAssay AID493246 (Drosophila RNAi Screening Center, 2011)

Purpose: 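Genes fly cells need to grow and stay alive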 (primary screen)
Cell system: Drosophila Kc and S2R+ cells
Reagents: long dsRNA against Drosophila genes
Measurement: 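Cell number per well after knock-down, printed as raw plate values; calls were based on per-plate z-scores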
Direction: Kc cell number and S2R+ cell number: higher = more cells remaining
Rule for the call: 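Active when the per-plate z-score of cell number is 3 or more in the direction of fewer cells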
The screen tested about 21,000 reagents; shown is an unselected part of those that have a named target and a result. In the full data, 429 (2%) were called active. 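Values are raw and not normalised between plates; calls rest on per-plate z-scores that were not deposited.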 Unmarked entries are inactive. Reagents against one gene are numbered here. Reagent sequences are not shown. The record does not give: the amount of reagent, the time to read-out.

| target gene | reagent no. | Kc cell number, rep 1 | Kc cell number, rep 2 | S2R+ cell number, rep 1 | S2R+ cell number, rep 2 |
| --- | --- | --- | --- | --- | --- |
| Papss (GeneID 40167) | 1 | 1.46e6 | 1.55e6 | 1.39e6 | 1.34e6 |
| CG11456 (GeneID 40309) | 1 | 1.51e6 | 1.59e6 | 1.33e6 | 1.46e6 |
| Adar (GeneID 31130) | 1 | 1.51e6 | 1.48e6 | 9.84e5 | 1.12e6 |
| Rpp30 (GeneID 44392) | 1 | 1.30e6 | 1.41e6 | 1.06e6 | 1.00e6 |
| CG40948 (retired record) (GeneID 5740550) | 1 | 1.42e6 | 1.78e6 | 1.23e6 | 1.20e6 |
| ND-42 (GeneID 42591) | 1 | 1.39e6 | 1.48e6 | 7.89e5 | 8.37e5 |
| Cyp6a16Psi (retired record) (GeneID 3772661) | 1 | 1.45e6 | 1.43e6 | 1.20e6 | 1.31e6 |
| CG31792 (GeneID 35163) | 1 | 1.51e6 | 1.66e6 | 1.33e6 | 3.11e5 |
| CG15142 (GeneID 35059) | 1 | 1.52e6 | 1.58e6 | 1.20e6 | 1.36e6 |
| Tfb1 (GeneID 36598) | 1 | 1.58e6 | 1.74e6 | 1.06e6 | 1.05e6 |
| ImpE1 (GeneID 45879) | 1 | 1.35e6 | 1.37e6 | 1.12e6 | 1.15e6 |
| ImpE1 (GeneID 45879) | 2 | 1.41e6 | 1.39e6 | 1.10e6 | 1.15e6 |
| Gabat (GeneID 40188) | 1 | 1.48e6 | 1.74e6 | 1.31e6 | 1.39e6 |
| hzg (GeneID 39748) | 1 | 1.36e6 | 1.46e6 | 1.12e6 | 1.25e6 |
| CG42597 (GeneID 8674090) | 1 | 5.19e5 | – | 8.21e5 | – |
| Ance-4 (GeneID 35909) | 1 | 1.60e6 | 1.59e6 | 1.19e6 | 1.21e6 |
| ldd (GeneID 318066) | 1 | 1.66e6 | 1.68e6 | 1.13e6 | 1.33e6 |
| blow (GeneID 35694) | 1 | 1.09e6 | 1.28e6 | 1.00e6 | 1.01e6 |
| l(2)37Cb (GeneID 35192) | 1 | 1.41e6 | 1.57e6 | 1.33e6 | 1.30e6 |
| CG14995 (GeneID 38487) | 1 | 1.16e6 | 1.24e6 | 6.93e5 | 7.59e5 |
| CG2202 (GeneID 32014) | 1 | 1.89e6 | 1.84e6 | 1.06e6 | 1.17e6 |
| Pepck1 (GeneID 37131) | 1 | 1.71e6 | 1.73e6 | 1.19e6 | 1.34e6 |
| mRpL48 (GeneID 33348) | 1 | 1.45e6 | 1.66e6 | 1.03e6 | 1.18e6 |
| CG42561 (GeneID 8674029) | 1 | 5.72e5 | – | 7.69e5 | – |
| CG4282 (GeneID 36825) | 1 | 1.39e6 | 1.53e6 | 1.29e6 | 1.33e6 |
| CG13116 (GeneID 34288) | 1 | 1.48e6 | 1.45e6 | 1.05e6 | 1.16e6 |
| hyd (GeneID 41181) | 1 | 1.81e6 | 1.69e6 | 1.16e6 | 1.32e6 |
| Dsp1 (GeneID 117294) | 1 | 3.01e5 (active) | 3.43e5 | 3.28e5 | 4.01e5 |
| unk (GeneID 42738) | 1 | 1.59e6 | 1.62e6 | 1.24e6 | 1.27e6 |
| CG40583 (retired record) (GeneID 5740259) | 1 | 1.47e6 | 1.63e6 | 1.11e6 | 1.10e6 |
| Pxt (GeneID 42131) | 1 | 1.50e6 | 1.50e6 | 1.06e6 | 1.18e6 |
| Eip93F (GeneID 44936) | 1 | 1.69e6 | 1.53e6 | 1.06e6 | 1.02e6 |
| Eip93F (GeneID 44936) | 2 | 1.32e6 | 1.42e6 | 8.86e5 | 9.53e5 |
| Gr58c (GeneID 37501) | 1 | 1.51e6 | 1.59e6 | 1.23e6 | 3.82e5 |
| Lk (GeneID 47746) | 1 | 1.33e6 | 1.40e6 | 1.24e6 | 1.27e6 |
| CG42327 (GeneID 41401) | 1 | 1.53e6 | 1.70e6 | 1.25e6 | 1.40e6 |
| CG42327 (GeneID 41401) | 2 | 1.66e6 | 1.71e6 | 1.27e6 | 1.43e6 |
| jdp (GeneID 43630) | 1 | 6.03e5 | – | 8.80e5 | – |
| sei (GeneID 37843) | 1 | 1.31e6 | 1.32e6 | 1.11e6 | 1.17e6 |

Continued; the last 2 above are carried over.
| target gene | reagent no. | Kc cell number, rep 1 | Kc cell number, rep 2 | S2R+ cell number, rep 1 | S2R+ cell number, rep 2 |
| --- | --- | --- | --- | --- | --- |
| jdp (GeneID 43630) | 1 | 6.03e5 | – | 8.80e5 | – |
| sei (GeneID 37843) | 1 | 1.31e6 | 1.32e6 | 1.11e6 | 1.17e6 |
| nab (GeneID 3346237) | 1 | 1.69e6 | 1.53e6 | 1.15e6 | 1.46e6 |
| nab (GeneID 3346237) | 2 | 1.36e6 | 1.13e6 | 1.15e6 | 1.25e6 |
| Ets98B (GeneID 43334) | 1 | 1.54e6 | 1.47e6 | 1.02e6 | 1.13e6 |
| Cdc14 (GeneID 34067) | 1 | 1.61e6 | 1.61e6 | 1.14e6 | 1.26e6 |
| escl (GeneID 34611) | 1 | 1.49e6 | 1.70e6 | 1.32e6 | 1.16e6 |
| CG15143 (GeneID 35062) | 1 | 1.50e6 | 1.58e6 | 1.21e6 | 1.38e6 |
| CG13325 (GeneID 36437) | 1 | 1.26e6 | 1.23e6 | 1.02e6 | 8.89e5 |
| ttm3 (GeneID 35437) | 1 | 1.63e6 | 1.85e6 | 1.40e6 | 3.32e5 |
| iPLA2-VIA (GeneID 39160) | 1 | 1.47e6 | 1.47e6 | 1.41e6 | 1.19e6 |
| CG5708 (GeneID 34361) | 1 | 1.50e6 | 1.57e6 | 1.15e6 | 1.30e6 |
| CG18536 (GeneID 37093) | 1 | 1.69e6 | 1.81e6 | 1.18e6 | 1.30e6 |
| CG9784 (GeneID 32629) | 1 | 1.46e6 | 1.40e6 | 1.07e6 | 1.14e6 |
| Ankrd49 (GeneID 34874) | 1 | 1.53e6 | 1.59e6 | 1.29e6 | 1.36e6 |
| C901 (GeneID 32032) | 1 | 1.64e6 | 1.68e6 | 1.03e6 | 1.18e6 |
| Kaz-m1 (GeneID 43154) | 1 | 1.71e6 | 1.68e6 | 1.09e6 | 1.15e6 |
| pasi2 (GeneID 41113) | 1 | 1.76e6 | 1.76e6 | 1.27e6 | 1.47e6 |
| CG11158 (GeneID 32327) | 1 | 1.65e6 | 1.46e6 | 1.16e6 | 1.24e6 |
| Raf (GeneID 31221) | 1 | 1.51e6 | 1.50e6 | 1.02e6 | 1.12e6 |
| Jhbp4 (GeneID 41948) | 1 | 1.34e6 | 1.39e6 | 1.12e6 | 1.23e6 |
| Clamp (GeneID 35445) | 1 | 1.43e6 | 1.49e6 | 1.10e6 | 1.25e6 |
